Source: the supplement of paper PMC10398353
Where “and” joins values, the source holds several entries; their conditions need not be identical. Identical values can stand only once. Counter-ions that a name gives are not always drawn. ± gives the standard deviation of the averaged measurements. This is one part of the list. The data scatter; read single values as rough.

What follows are molecules tested on Salmonella enterica serovar Typhimurium ST313 D23580 (assay: normalized bacterial growth (OD600 20 h minus 0 h, interquartile-mean normalized) (fraction of plate interquartile mean); higher = more bacterial growth (less inhibition)). Settings: LPM (pH 5.8, low phosphate, low Mg2+), concentration: 10 µM, temperature: 37 °C.

Compound | normalized bacterial growth
Cc1c(-c2ccccc2)oc2c(C(=O)OCCN3CCCCC3)cccc2c1=O [Flavoxate hydrochloride] | 0.811
CC(=O)Oc1cc(OC(C)=O)c2c(c1)O[C@H](c1ccc(OC(C)=O)c(OC(C)=O)c1)[C@@H](OC(C)=O)C2 | 0.932
CC(C)CCC[C@@H](C)[C@H]1CC[C@H]2[C@@H]3CC(=O)[C@H]4C[C@@H](O)CC[C@]4(C)[C@H]3CC[C@]12C [5alpha-CHOLESTAN-3beta-OL-6-ONE] | 1.15
CCCCCCCCCCCCCCCCCCCCCCO | 0.643
OC[C@H]1NC[C@H](O)[C@@H](O)[C@@H]1O [1-Deoxynojirimycin hydrochloride] | 0.967
CC12CCC(CC1=O)C2(C)C (stereo unspecified) | 1.24
C[C@@H]1NC(=O)[C@@H](N)CNC(=O)[C@H](C2CCNC(=N)N2)NC(=O)/C(=C/NC(N)=O)NC(=O)[C@H](CNC(=O)CC(N)CCCN)NC1=O.N=C1NCC[C@H]([C@@H]2NC(=O)/C(=C/NC(N)=O)NC(=O)[C@H](CNC(=O)C[C@@H](N)CCCN)NC(=O)[C@H](CO)NC(=O)[C@@H](N)CNC2=O)N1 | 1.07 and 0.988
CN[C@@H]1[C@@H](O[C@H]2O[C@H](CO)[C@@H](N)[C@H](O)[C@H]2O)OC2C[C@@H](N)[C@@H](O[C@H]3[C@H](O)[C@@H](O)[C@H](N)C[C@@H]3N)OC2[C@@H]1O (stereo partly specified) | 1.22
C=C[C@@](C)(O)CCC1C(=C)CCC2[C@@](C)(CO)CCC[C@]12C (stereo partly specified) | 1
CC1(C)O[C@H]2CC(=O)OC[C@]23[C@H]2CC[C@@]4(C)[C@H](c5ccoc5)OC(=O)[C@H]5O[C@]54[C@]2(C)C(=O)C[C@@H]13 | 1 ± 0.058
Cc1onc(-c2ccccc2Cl)c1C(=O)N[C@@H]1C(=O)N2[C@@H]1SC(C)(C)[C@@H]2C(=O)O | 1.01
Cn1c(=O)c2[nH]c(-c3ccccc3)nc2n(C)c1=O ["1,3-Dimethyl-8-phenylxanthine"] | 1.13
CC(=O)O[C@@H]1CC2C(C)(C)CCC(=O)[C@]2(C)C2CC[C@@]3(C)[C@H](c4ccoc4)OC(=O)C4OC43[C@@]21C (stereo partly specified) | 0.767
COC(=O)C1=CO[C@@H](O[C@@H]2O[C@H](CO)[C@@H](O)[C@H](O)[C@H]2O)[C@@H]2C(CO)=CC[C@H]12 | 0.983
NS(=O)(=O)c1cc2c(cc1Cl)NC(C(Cl)Cl)NS2(=O)=O (stereo unspecified) | 1.05
CN1CCN(C2Cc3ccccc3Sc3ccc(Cl)cc32)CC1 (stereo unspecified) [()-Octoclothepin maleate] | 0.857
CN[C@@H]1[C@H](O)[C@H](NC)[C@H]2O[C@@]3(O)C(=O)C[C@@H](C)O[C@H]3O[C@@H]2[C@H]1O | 0.795 and 0.912
CN[C@H](CC(=O)O)C(=O)O [N-Methyl-D-aspartic acid] | 0.799
O=C1C[C@@H](c2ccc(O)c(O)c2)Oc2cc(O)cc(O)c21 | 0.567
Nc1ccccc1S(N)(=O)=O [2-Aminobenzenesulfonamide] | 1.27
CC1=CC(=O)C(C(C)C)=CC1=O | 1.02
OCc1cccnc1 | 1.27
O=Cc1ccccc1O[C@@H]1O[C@H](CO)[C@@H](O)[C@H](O)[C@H]1O | 1.21
COC(=O)C(Cc1ccccc1)NC(=O)/C(=C1/OC(=O)C(c2ccccc2)=C1O)c1ccccc1 (stereo unspecified) | 1.13
CCN(c1nc(N)c(C(=O)NC(=N)N)nc1Cl)C(C)C [5-(N-Ethyl-N-isopropyl)amiloride] | 0.594
O=C(O)Cc1c[nH]c2ccc(O)cc12 [5-Hydroxyindolacetic acid] | 1.67

Compound | normalized bacterial growth
CN(C)CCC=C1c2ccccc2COc2ccccc21 [Doxepin hydrochloride] | 0.613
CN(C)CCC=C1c2ccccc2COc2ccccc21 | 0.846
CC(C)[N+](C)(CCOC(=O)C1c2ccccc2Oc2ccccc21)C(C)C [Propantheline bromide] | 0.87
CN1CCC[C@@H]1Cc1c[nH]c2ccc(CCS(=O)(=O)c3ccccc3)cc12 | 1
C[n+]1c2cc(N)ccc2cc2ccc(N)cc21 | 0.912
COc1ccc(-c2coc3cc(OC)ccc3c2=O)cc1 | 0.589
O=C(N[C@H](CO)[C@H](O)c1ccc([N+](=O)[O-])cc1)C(Cl)Cl | 0.986
O=C(N[C@H](CO)[C@H](O)c1ccc([N+](=O)[O-])cc1)C(Cl)Cl [Chloramphenicol] | 1.23
O=C(O)CCNC(=O)c1ccccc1 | 1.26
CCC[C@@H]1C[C@@H](C(=O)N[C@@H]([C@H]2O[C@H](SC)[C@H](O)[C@@H](O)[C@H]2O)[C@H](C)Cl)N(C)C1 | 0.561
CCN(CC)CCOC(=O)c1cc(Cl)c(N)cc1OC ["SDZ-205,557 hydrochloride"] | 0.951
NC/C=C/C(=O)O [(E)-4-amino-2-butenoic acid] | 1.14
CC(=O)N[C@@H](Cc1c[nH]c2ccccc12)C(=O)OCc1cc(C(F)(F)F)cc(C(F)(F)F)c1 | 0.595
Cc1ccc2c(c1)c1c3n2CCNC3CCC1 (stereo unspecified) [Pirlindole mesylate] | 0.65
CCN(CC)CCNC(=O)c1cc(Cl)c(N)cc1OC [Metoclopramide hydrochloride] | 0.992
NCCCNCCCCNCCCN | 0.541
NCCCNCCCCNCCCN [Spermine tetrahydrochloride] | 0.811
COc1ccc(-c2oc3cc(OC)c(OC)c(OC)c3c(=O)c2OC)cc1 | 0.862
CN(C)C/C=C(/c1ccc(Br)cc1)c1cccnc1 [Zimelidine dihydrochloride monohydrate] | 1.02
CN(C)C/C=C(/c1ccc(Br)cc1)c1cccnc1 [Zimelidine dihydrochloride] | 1.14
CC(C)(CO)C(O)C(=O)NCCCO (stereo unspecified) | 1.07
CCOc1ccc2ccccc2c1C(=O)N[C@@H]1C(=O)N2[C@@H]1SC(C)(C)[C@@H]2C(=O)O [Nafcillin sodium salt monohydrate] | 0.632
CCOc1ccc2ccccc2c1C(=O)N[C@@H]1C(=O)N2[C@@H]1SC(C)(C)[C@@H]2C(=O)O | 1.1
Cn1cnc2c1c(=O)[nH]c(=O)n2C | 1.1
N#C/C(=C\c1c[nH]c2ccccc12)C(=O)c1ccc(O)c(O)c1 [Tyrphostin AG 808] | 1.2
